Measurements published in article PMC8754129.
No constants are given. Whether binding was seen depends on the method and setting. For some of these results: In cells and extracts the contact can be indirect. Some entries that bind do so weakly or less than the wild type.

The chains behind the UniProt entries cited, without tags or fusion partners. Where a name states a change or a piece, a line headed by the entry shows the natural chain unless it says otherwise. Residues count along the entry.
UniProt F5HCV3: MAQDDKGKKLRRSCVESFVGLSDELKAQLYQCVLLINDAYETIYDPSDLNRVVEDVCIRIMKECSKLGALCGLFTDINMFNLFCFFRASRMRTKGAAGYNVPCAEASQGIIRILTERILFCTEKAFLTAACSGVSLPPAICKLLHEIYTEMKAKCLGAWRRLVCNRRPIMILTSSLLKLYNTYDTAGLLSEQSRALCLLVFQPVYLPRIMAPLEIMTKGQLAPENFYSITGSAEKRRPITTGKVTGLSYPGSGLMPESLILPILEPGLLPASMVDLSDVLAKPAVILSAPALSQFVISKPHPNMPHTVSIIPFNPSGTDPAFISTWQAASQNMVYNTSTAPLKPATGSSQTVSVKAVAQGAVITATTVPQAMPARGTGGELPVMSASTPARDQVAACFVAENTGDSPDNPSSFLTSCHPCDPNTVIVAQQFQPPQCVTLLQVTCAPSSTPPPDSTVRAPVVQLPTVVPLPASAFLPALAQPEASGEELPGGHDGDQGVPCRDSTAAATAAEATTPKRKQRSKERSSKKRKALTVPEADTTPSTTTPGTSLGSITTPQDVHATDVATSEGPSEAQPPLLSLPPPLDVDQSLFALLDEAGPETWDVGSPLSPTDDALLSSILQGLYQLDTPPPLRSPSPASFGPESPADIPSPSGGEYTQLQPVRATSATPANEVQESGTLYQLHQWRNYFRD
GFP-ORF50(1–590) (Kaposi's sarcoma-associated herpesvirus (KSHV)): residues 1-590 of F5HCV3
GFP-ORF50(1–490) (Kaposi's sarcoma-associated herpesvirus (KSHV)): residues 1-490 of F5HCV3
F-Sp3(533–781) (Q02447, residues 533-781): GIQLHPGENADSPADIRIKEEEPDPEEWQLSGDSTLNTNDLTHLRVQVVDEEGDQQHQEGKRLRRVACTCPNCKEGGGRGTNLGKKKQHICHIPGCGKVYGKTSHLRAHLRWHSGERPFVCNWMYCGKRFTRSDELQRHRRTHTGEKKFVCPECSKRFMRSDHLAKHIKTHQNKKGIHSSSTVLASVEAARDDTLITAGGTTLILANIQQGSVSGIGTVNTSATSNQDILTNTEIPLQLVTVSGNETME

Assays:
[1] = target: GFP-ORF50(1–490) (Kaposi's sarcoma-associated herpesvirus (KSHV)) (UniProt F5HCV3); assay: native gel or EMSA
[2] = target: GFP-ORF50(1–490) (Kaposi's sarcoma-associated herpesvirus (KSHV)) (UniProt F5HCV3); assay: co-IP
[3] = target: GFP-ORF50(1–590) (Kaposi's sarcoma-associated herpesvirus (KSHV)) (UniProt F5HCV3); assay: co-IP

Row | Substance | binding [1] | binding [2] | binding [3]
1 | F-Sp3 (from UniProt Q02447-1 1-781) | binds | – | –
2 | F-Sp3(533–781) (from UniProt Q02447-1 533-781) (domain or fragment) | binds | binds | binds
